Article PMC8132058

Amino acid sequences for entries named in this document (tags omitted).
UniProt O95863: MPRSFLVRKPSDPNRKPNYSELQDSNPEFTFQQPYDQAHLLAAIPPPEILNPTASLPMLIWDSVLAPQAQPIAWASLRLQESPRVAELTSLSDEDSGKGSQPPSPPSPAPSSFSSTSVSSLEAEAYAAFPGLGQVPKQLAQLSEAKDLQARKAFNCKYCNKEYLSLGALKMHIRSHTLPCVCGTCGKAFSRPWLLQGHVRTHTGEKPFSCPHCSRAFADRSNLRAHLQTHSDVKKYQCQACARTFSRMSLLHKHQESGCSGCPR
UniProt Q13620: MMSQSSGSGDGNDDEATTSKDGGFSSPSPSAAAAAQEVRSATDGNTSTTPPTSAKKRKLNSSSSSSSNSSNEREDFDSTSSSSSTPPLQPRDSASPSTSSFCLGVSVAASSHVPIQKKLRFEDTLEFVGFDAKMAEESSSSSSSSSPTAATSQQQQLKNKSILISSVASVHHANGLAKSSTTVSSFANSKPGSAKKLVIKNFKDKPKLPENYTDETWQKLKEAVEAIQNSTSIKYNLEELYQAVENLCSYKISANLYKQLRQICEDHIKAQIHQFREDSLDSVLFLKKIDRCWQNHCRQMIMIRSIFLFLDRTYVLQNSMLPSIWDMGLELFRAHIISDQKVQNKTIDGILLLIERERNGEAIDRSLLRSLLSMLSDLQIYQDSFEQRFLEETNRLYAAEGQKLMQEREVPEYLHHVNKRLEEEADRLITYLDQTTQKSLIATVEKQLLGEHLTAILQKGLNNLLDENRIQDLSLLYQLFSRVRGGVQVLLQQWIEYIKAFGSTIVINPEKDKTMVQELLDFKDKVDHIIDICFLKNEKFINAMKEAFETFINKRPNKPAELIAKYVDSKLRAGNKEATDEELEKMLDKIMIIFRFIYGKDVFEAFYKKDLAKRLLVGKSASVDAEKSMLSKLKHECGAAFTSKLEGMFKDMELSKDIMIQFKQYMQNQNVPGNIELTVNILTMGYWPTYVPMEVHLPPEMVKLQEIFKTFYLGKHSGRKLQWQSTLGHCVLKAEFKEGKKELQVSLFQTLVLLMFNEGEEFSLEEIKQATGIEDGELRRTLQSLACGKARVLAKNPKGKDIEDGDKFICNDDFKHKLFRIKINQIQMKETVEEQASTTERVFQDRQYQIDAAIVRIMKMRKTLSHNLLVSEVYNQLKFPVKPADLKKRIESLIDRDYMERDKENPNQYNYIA
UniProt Q92769: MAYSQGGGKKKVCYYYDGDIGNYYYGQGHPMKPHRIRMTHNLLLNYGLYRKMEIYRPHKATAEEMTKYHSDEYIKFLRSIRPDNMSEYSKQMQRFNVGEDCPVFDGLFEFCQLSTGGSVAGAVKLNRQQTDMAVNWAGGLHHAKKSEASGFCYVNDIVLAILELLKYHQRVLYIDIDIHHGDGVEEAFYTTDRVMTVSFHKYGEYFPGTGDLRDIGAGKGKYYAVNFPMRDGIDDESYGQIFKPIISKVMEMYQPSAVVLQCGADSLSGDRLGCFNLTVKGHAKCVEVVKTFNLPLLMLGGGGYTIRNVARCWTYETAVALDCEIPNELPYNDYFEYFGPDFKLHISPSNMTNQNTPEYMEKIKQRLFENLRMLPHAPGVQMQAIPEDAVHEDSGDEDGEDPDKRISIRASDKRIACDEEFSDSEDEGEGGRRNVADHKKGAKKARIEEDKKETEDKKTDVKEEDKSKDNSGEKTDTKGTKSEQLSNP
UniProt O15379: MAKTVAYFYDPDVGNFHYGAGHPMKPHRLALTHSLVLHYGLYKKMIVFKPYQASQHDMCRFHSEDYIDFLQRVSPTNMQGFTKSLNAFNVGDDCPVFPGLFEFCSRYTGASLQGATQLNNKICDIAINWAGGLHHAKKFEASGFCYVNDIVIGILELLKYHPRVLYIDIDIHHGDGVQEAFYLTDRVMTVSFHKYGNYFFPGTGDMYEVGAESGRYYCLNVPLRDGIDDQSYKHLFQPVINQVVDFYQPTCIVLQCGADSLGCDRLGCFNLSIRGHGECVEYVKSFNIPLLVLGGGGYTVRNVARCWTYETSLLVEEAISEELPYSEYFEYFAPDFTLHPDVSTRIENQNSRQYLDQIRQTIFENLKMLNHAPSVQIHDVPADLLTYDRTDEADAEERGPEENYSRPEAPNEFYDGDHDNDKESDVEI
UniProt Q16531: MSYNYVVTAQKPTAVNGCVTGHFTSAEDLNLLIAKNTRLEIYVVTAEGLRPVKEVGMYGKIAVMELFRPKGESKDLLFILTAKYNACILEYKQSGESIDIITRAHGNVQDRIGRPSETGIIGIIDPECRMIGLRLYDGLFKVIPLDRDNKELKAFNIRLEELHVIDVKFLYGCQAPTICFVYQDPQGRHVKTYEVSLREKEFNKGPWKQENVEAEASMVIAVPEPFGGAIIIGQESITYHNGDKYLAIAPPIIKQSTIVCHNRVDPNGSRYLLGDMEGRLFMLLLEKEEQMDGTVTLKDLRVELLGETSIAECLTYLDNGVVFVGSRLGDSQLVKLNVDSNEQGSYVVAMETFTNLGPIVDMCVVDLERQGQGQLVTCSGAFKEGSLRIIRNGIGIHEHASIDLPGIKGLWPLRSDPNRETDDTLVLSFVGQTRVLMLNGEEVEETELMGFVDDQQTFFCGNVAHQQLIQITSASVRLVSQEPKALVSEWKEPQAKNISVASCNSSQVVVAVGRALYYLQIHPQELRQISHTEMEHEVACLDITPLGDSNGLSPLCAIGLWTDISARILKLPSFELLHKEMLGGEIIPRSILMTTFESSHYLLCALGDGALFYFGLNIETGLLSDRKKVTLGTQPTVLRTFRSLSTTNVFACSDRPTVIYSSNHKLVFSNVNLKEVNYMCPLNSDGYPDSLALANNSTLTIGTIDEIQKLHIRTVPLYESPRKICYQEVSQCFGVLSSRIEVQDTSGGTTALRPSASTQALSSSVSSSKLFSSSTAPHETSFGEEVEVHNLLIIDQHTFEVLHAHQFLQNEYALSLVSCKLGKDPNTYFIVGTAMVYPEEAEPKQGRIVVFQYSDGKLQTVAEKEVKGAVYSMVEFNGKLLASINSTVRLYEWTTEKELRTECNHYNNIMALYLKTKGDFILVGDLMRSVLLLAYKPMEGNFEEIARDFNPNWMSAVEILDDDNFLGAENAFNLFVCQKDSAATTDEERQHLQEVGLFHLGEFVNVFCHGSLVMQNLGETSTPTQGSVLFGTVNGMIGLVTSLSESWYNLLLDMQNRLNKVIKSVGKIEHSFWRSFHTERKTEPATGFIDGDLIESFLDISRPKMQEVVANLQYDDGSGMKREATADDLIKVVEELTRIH
UniProt Q09028: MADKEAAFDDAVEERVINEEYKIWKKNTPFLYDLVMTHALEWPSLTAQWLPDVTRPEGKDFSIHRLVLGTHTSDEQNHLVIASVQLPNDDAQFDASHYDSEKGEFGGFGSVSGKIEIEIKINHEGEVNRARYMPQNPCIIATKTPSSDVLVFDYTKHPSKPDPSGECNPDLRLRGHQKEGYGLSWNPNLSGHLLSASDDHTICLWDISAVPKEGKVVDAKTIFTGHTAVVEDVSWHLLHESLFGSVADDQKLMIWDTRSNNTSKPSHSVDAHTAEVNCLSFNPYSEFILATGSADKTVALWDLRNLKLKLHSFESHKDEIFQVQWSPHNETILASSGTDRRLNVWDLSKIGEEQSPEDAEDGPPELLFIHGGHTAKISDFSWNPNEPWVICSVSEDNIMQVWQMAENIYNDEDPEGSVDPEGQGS
UniProt Q13547: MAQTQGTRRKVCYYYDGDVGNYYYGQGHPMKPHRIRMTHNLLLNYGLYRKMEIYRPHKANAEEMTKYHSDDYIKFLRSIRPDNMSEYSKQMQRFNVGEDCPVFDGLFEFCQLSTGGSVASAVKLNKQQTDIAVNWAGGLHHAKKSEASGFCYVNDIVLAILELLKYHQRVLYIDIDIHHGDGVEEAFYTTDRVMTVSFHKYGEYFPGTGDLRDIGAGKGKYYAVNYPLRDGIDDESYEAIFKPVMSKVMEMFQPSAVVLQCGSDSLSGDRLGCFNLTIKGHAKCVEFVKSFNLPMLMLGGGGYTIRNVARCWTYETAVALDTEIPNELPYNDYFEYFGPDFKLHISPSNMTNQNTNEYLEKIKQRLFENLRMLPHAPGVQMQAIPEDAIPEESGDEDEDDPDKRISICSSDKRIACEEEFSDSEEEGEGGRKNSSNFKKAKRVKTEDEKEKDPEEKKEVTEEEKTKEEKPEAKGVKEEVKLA

Legend:
[1] = target: FLAG-Snail (UniProt O95863); test: affinity purification with mass spectrometry; immunoaffinity purification of Snail- or ZEB2-associated proteins from MDA-MB-231 cells; silver stain and mass spectrometry; column-bound proteins western blotted
[2] = target: FLAG-CUL4B (UniProt Q13620); test: affinity purification with mass spectrometry; whole-cell extracts of FLAG-CUL4B-expressing MCF-7 cells on anti-FLAG M2 affinity columns, eluted with FLAG peptide; SDS-PAGE, silver stain, LC-MS/MS; eluates also western blotted

Row | binding [1] | binding [2] | Molecule
1 | binds | binds | HDAC2 (endogenous) (from UniProt Q92769 1-488) (enzyme)
2 | binds | – | CUL4B (endogenous) (from UniProt Q13620 1-913)
3 | – | binds | HDAC3 (endogenous) (from UniProt O15379 1-428) (enzyme)
4 | binds | binds | DDB1 (endogenous) (from UniProt Q16531 1-1140)
5 | binds | binds | RbAp48 (endogenous) (from UniProt Q09028 1-425)
6 | binds | binds | HDAC1 (endogenous) (from UniProt Q13547 1-482) (enzyme)
7 | – | binds | SAP30 (endogenous) (protein, UniProt O75446 1-220) MNGFTPDEMSRGGDAAAAVAAVVAAAAAAASAGNGTGAGTGAEVPGAGAVSAAGPPGAAGPGPGQLCCLREDGERCGRAAGNASFSKRIQKSISQKKVKIELDKSARHLYICDYHKNLIQSVRNRRKRKGSDDDGGDSPVQDIDTPEVDLYQLQVNTLRRYKRHFKLPTRPGLNKAQLVEIVGCHFRSIPVNEKDTLTYFIYSVKNDKNKSDLKVDSGVH

No constants are given. Whether binding was seen depends on the method and setting. In cells and extracts the contact can be indirect. A yes stands for co-enrichment or nearness to the bait. Other partners may have been found.
